Experimental data as given in patent US20040058857A1 (priority 2003, published 2004).

Assays:
[1] = solid-phase peptide synthesis; settings: acetate salt; for final HPLC purity: conjugation step
[2] = general procedure: Boc solid-phase peptide synthesis; Boc-Val-PAM; DCC and HOBT in N-methyl-2-pyrrolidinone; settings: whole synthesis, analytical HPLC, Vydac C18, 214 nm, acetate salt

Substance: 4-des-Acetylvinblastine-23-(N-Ac-4-trans-L-Hyp-Ser-Ser-Chg-Gln-Ser-HCAP) amide acetate salt
- final HPLC purity ([1]; 214 nm): 99%

Substance: 4-des-Acetylvinblastine-23-(N-Ac-Ser-Chg-Gln-Ser-Ser-Pro-HCAP) amide acetate salt
- final HPLC purity ([1]; 214 nm): 99%

Substance: N-Acetyl-4-trans-L-Hyp-Ser-Ser-Chg-Gln-Ser-HCAP amine
- purity (crude or final not stated) ([1]; 214 nm): 99%

Substance: N-Acetyl-Ser-Chg-Gln-Ser-Ser-Pro-HCAP amine
- purity (crude or final not stated) ([1]; 214 nm): 99%

Substance: N-Acetyl-Ser-Ser-Ser-Chg-Gln-Ser-Val-OH
- crude HPLC purity ([2]; scale 3 x 0.5 mmol): 96%

Substance: N-methoxydiethyleneoxyacetyl-4-trans-L-Hyp-Ser-Ser-Chg-Gln-Ser-Val-OH
- final HPLC purity ([2]; scale 2 x 0.5 mmol): 99%

Substance: des-Acetylvinblastine-4-O-(N-Acetyl-4-trans-L-Hyp-Ser-Ser-Chg-Gln-Ser-Ser-Pro) ester
- final HPLC purity ([1]; analytical HPLC, Vydac C18, 214 nm): 98.9%
